Test results from patent publication US5502061A (Eli Lilly and Company, priority 1994, dated 1996).

What was measured:
[1] = general procedure: Boc solid-phase peptide synthesis; PAM-resin; DCC (biotin coupling); standard double-couple protocol
[2] = Boc solid-phase peptide synthesis; PAM-resin; DCC (biotin coupling); standard double-couple protocol; conditions: whole synthesis, scale 1.5 mmol
[3] = whole synthesis, scale 1.5 mmol

Fluorescein-labeled Nα-Biotin-Gly-Ser-Gln-Asn-Tyr-Pro-Ile-Val-Gly-Lys-OH
conjugation yield ([1]; conjugation step): 12%

N^α -Biotin-Gly-Ser-Gln-Asn-Tyr-Pro-Ile-Val-Gly-Lys-OH
isolated mass [1, 3]: 1.206 g | isolated yield [1, 3]: 62% | crude mass [2]: 2.14 g
